Test results: paper doi:10.1101/2023.02.08.527750
These are yes or no findings as the source states them, for the method shown. Binding seen in cells or lysates may run through a third protein. Some results given as binding are weak or reduced against the parent protein; the word gives no strength. Where a sequence is shown, tags or fusion partners need not be part of it. Values belong to the molecule of their own block, whether it stands above or below them.

Sequences of proteins named here, by UniProt entry; tags and fusion partners are left off.
UniProt Q9Y265: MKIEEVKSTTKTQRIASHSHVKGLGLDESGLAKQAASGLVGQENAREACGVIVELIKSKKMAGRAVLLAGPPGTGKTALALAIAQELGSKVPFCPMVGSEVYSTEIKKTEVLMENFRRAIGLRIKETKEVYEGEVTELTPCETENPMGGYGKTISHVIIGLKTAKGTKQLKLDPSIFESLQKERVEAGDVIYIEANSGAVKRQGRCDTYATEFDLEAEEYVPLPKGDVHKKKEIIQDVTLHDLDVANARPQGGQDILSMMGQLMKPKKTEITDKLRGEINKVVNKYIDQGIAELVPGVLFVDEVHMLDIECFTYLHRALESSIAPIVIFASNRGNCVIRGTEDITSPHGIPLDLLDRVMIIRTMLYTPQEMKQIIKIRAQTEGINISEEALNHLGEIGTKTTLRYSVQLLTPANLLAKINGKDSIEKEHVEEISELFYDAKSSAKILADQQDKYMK

Columns and labels:
[1] = target: T1, ITFG1-Myc (full-length ITFG1 with a Myc tag at the C-terminal) (human) (UniProt Q8TB96); assay: co-IP
T1 sequence: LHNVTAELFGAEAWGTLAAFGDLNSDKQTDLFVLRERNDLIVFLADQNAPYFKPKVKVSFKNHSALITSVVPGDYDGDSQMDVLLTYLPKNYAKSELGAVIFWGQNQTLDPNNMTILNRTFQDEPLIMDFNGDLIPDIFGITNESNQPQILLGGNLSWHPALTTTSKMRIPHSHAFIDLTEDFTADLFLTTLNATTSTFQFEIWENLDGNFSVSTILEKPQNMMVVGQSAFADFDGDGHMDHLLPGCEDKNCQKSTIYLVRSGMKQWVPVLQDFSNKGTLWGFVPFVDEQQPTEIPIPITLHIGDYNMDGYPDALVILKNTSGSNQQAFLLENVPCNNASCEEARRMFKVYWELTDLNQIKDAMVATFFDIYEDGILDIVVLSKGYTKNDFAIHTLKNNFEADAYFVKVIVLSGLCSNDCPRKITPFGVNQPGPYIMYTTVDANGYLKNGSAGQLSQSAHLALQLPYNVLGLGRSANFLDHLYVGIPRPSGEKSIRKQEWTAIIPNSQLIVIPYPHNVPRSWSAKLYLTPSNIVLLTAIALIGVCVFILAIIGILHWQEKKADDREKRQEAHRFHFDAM

[2] = target: FLAG-RUVBL1 (full-length RUVBL1 with N-terminal 3xFLAG tag) (human) (UniProt Q9Y265); assay: co-IP

- binding [1]: binds
Molecule: RUVBL1 (endogenous) (from UniProt Q9Y265 1-456)

- binding [2]: binds
B1: ITFG1-Myc (full-length ITFG1 with a Myc tag at the C-terminal) (protein, UniProt Q8TB96 34-612)
chain: T1 sequence
